# From PubChem BioAssay AID540276 (National Center for Advancing Translational Sciences (NCATS), 2011)
# The campaign covered roughly 300,000 compounds. About 5,400 (1.8%) were called active. Inconclusive results, whose numbers are uncertain, are shown with a selection of clear calls. Calls come from the whole dose curve; tested in HEK293 cells. A potency beside an inconclusive call is a rough fit, not a confirmed value.
# Test: qHTS for inhibitors of binding or entry into cells for Marburg Virus
# Conditions: Marburg virus pseudotyped entry inhibition, cell reporter; series mostly up to 37.8 µM
# Potency is the fitted concentration of half-maximal effect.
row,Structure (SMILES),Potency
1,COc1cc(OC)c(N(C)S(=O)(=O)c2cccc(C(=O)OCc3c(C)noc3C)c2)cc1Cl,"inconclusive: 35.5 µM [inhibitor, single point]"
2,CC1(C)Cc2ccccc2C(N/N=C/c2cccc(F)c2)=N1,"inconclusive: 20 µM [inhibitor, single point]"
3,O=C(NCc1cccs1)C1CCCN1C(=O)Nc1cccc(F)c1 (stereo not given),inactive
4,CCCN1CCC(=NNc2ccc(S(=O)(=O)N3CCOCC3)cc2[N+](=O)[O-])CC1,"inconclusive: 1.26 µM [inhibitor, partial curve]"
5,Cc1ccc(NC(=O)CSc2nc(N)c3cc4c(nc3n2)CCCC4)cc1,"inconclusive: 25.1 µM [inhibitor, single point]"
6,Fc1ccccc1Nc1nc(-c2ccncc2)nc2ccccc12,"inconclusive: 7.94 µM [inhibitor, partial curve]"
7,CCc1ccc(CN(Cc2ccco2)C(=O)c2cc(-c3ccc(C)c(F)c3)on2)cc1,"inconclusive: 2.51 µM [inhibitor, full curve]"
8,O=C1CC(c2ccco2)Sc2nc3ccccc3n21 (stereo not given),"inconclusive: 9.2 µM [activator, partial curve, poor fit]"
9,COc1cc(NC(=O)COc2ccccc2[N+](=O)[O-])ccc1NC(=O)c1cccs1,"inconclusive: 10 µM [inhibitor, partial curve, poor fit]"
10,C=CCN(Cc1ccc([N+](=O)[O-])cc1)S(=O)(=O)C=C,"inconclusive: 0.791 µM [activator, full curve, poor fit]"
11,CCn1cc2nc(SCC(=O)Nc3ccc(OC)cc3OC)n(Cc3ccc(Cl)cc3)c(=O)c2n1,"inconclusive: 11.2 µM [inhibitor, partial curve, poor fit]"
12,Cc1ccc(C(=O)Nc2cccc(C(=O)N/N=C/c3ccc(O)cc3)c2)cc1,"inconclusive: 3.55 µM [activator, single point]"
13,Cc1ccc(C(=O)NC(=O)OCCn2c(C)cnc2[N+](=O)[O-])cc1,inactive
14,Cn1c(SCC(=O)N/N=C/C=C\c2ccco2)nc2ccccc21,inactive
15,O=C(Nc1cccc(Cl)c1)Nc1ccon1,"inconclusive: 5.62 µM [activator, single point]"
16,Cc1c(C(=O)O)cccc1-c1ccc(/C=N/Nc2ccc(Br)cc2)o1,inactive
17,CCN(C(=O)c1ccco1)c1nnc(-c2cccnc2)s1,"inconclusive: 7.94 µM [activator, partial curve, poor fit]"
18,CCOC(=O)c1c(NC(=O)c2cc(C)oc2C)sc(C(=O)Nc2ccc(Cl)cc2)c1C,inactive
19,CN(C)N1C(=O)/C(=C/c2ccco2)SC1=Nc1ccccc1,"inconclusive: 0.794 µM [inhibitor, partial curve, poor fit]"
20,CCN(CC)CCN(C(=O)c1ccc2ccccc2c1)c1nc2cc3c(cc2s1)OCO3,"inconclusive: 11.2 µM [inhibitor, partial curve, poor fit]"
21,CN(c1ccccc1)S(=O)(=O)c1cccc(NS(=O)(=O)c2cccc(C(=O)O)c2)c1,"inconclusive: 12.6 µM [activator, single point]"
22,O=S(=O)(c1ccccc1)N1CCC(N2CCCCCC2)CC1,"inconclusive: 0.103 µM [activator, full curve, poor fit]"
23,CC1=C(C(=O)OC2CCCCCC2)C(c2ccc(Cl)cc2Cl)CC(=O)N1 (stereo not given),inactive
24,CC(=O)c1ccc(NC(=S)N2CCCC(CO)C2)cc1 (stereo not given),inactive

row,Structure (SMILES),Potency
1,Cc1ccc(N(CC(=O)NCc2ccncc2)S(C)(=O)=O)cc1,"inconclusive: 0.631 µM [activator, single point]"
2,O=C(CNC(=O)C1COc2ccccc2O1)N/N=C/c1cc(Br)c(O)c(Br)c1 (stereo not given),inactive
3,Cc1ccc(C(C)C)c(OCc2nn(CC(=O)c3ccc(Cl)cc3)c3[n+]2CCCCC3)c1,"inconclusive: 12.6 µM [inhibitor, single point]"
4,CC1Cc2cc(S(=O)(=O)NCc3ccccc3)ccc2N1C(=O)C1CCC1 (stereo not given),"inconclusive: 1.58 µM [inhibitor, partial curve, poor fit]"
5,NC(=O)c1ccc(-n2nnnc2SCc2ccccc2)cc1,inactive
6,CCOC(=O)N1CCc2cc(OC)c(OC)c3c2c1cc1cc(OC)c(OC)cc13,active: 7.94 µM
7,CC(C)NS(=O)(=O)c1ccc(Oc2ncc(C(F)(F)F)cc2Cl)cc1,"inconclusive: 0.146 µM [inhibitor, full curve, poor fit]"
8,CCOC(=O)c1c(NC(=O)CSc2cn(CCNC(=O)c3ccc(OCC)cc3)c3ccccc23)sc2c1CCC2,"inconclusive: 35.5 µM [inhibitor, single point]"
9,Cc1ccc(CONC(=O)c2ccccc2Cl)cc1,"inconclusive: 5.01 µM [activator, partial curve, poor fit]"
10,Cn1c(=O)c(Nc2ccc(O)cc2)c2c3c(cccc31)C(=O)c1ccccc1-2,inactive
11,O=C1C(Oc2ccccc2)C(c2cccs2)N1Cc1ccc2c(c1)OCO2 (stereo not given),"inconclusive: 8.2 µM [inhibitor, partial curve, poor fit]"
12,O=C(Nc1cc(C(F)(F)F)ccc1F)C1CCCCC1,"inconclusive: 6.51 µM [activator, single point]"
13,CCOCCn1c(SCCCc2ccccc2)nc2c1c(=O)[nH]c(=O)n2C,inactive
14,Clc1ccc2nc(-c3cccs3)c(Nc3ccc4c(c3)OCCO4)n2c1,inactive
15,CN1CCN(NC(=O)c2cccc3ccccc23)CC1,inactive
16,CC(=O)c1ccc(C(=O)N(CCN(C)C)c2nc3c(Cl)cccc3s2)cc1,"inconclusive: 6.31 µM [activator, single point]"
17,COCCn1c(C)cc(C2=NNC(=NC(C)(C)C)SC2)c1C,inactive
18,COCCNC(=S)N/N=C/c1ccc(N2CCOCC2)cc1,active: 23.1 µM
19,C/C(=N/Nc1nc(C)cc(C)n1)c1ccc(Br)cc1,"inconclusive: 14.1 µM [inhibitor, single point]"
20,Cc1cccc(NC(=O)NNC(=O)c2cc(-c3ccccc3Cl)nc3ccccc23)c1,"inconclusive: 35.5 µM [inhibitor, single point]"
21,Brc1ccc(OCCOc2cccc3cccnc23)cc1,inactive
22,CC[C@H](C)C(=O)O[C@H]1CCC=C2C=C[C@H](C)[C@H](CC[C@@H]3C[C@@H](O)CC(=O)O3)[C@H]21,"inconclusive: 0.224 µM [inhibitor, full curve]"
23,CCCCOC(=O)Cn1c(=O)c2c(nc3n2CCCCN3c2ccc(C)cc2)n(C)c1=O,"inconclusive: 14.1 µM [inhibitor, single point]"
24,CCC1(C)Cc2c(C#N)c(N)n(-c3ccccc3)c(=S)c2CO1 (stereo not given),"inconclusive: 11.2 µM [activator, partial curve, poor fit]"

row,Structure (SMILES),Potency
1,CNc1nc(-c2ccc3c(c2)CCN3C(=O)c2ccccc2C)cs1,"inconclusive: 4.47 µM [inhibitor, full curve, poor fit]"
2,Cc1nn2cc(-c3ccc(N)cc3)nc2s1,inactive
3,C/C(Cn1cnc([N+](=O)[O-])n1)=N\NC(=O)c1ccc(Br)cc1,inactive
4,CCOC(=O)c1c(-n2c(C)cc(C=O)c2C)sc2c1CCCC2,active: 11.6 µM
5,O=C(CCCCl)NC(=S)Nc1ccc(N2CCOCC2)cc1,"inconclusive: 7.08 µM [activator, partial curve, poor fit]"
6,Cc1ccc(S(=O)(=O)NC2CCCCCC2)cc1,inactive
7,COc1ccc(CC(=O)c2ccc(OC)c(OC)c2C)cc1OC,"inconclusive: 5.01 µM [inhibitor, partial curve, poor fit]"
8,CC(=O)OC1CC2(C)C(CCC2(O)C(C)=O)C2CCC3C(Cl)C(=O)CCC3(C)C12 (stereo not given),"inconclusive: 1.12 µM [inhibitor, partial curve, poor fit]"
9,CN(Cc1ccccc1)c1ncnc2sccc12,"inconclusive: 20 µM [inhibitor, partial curve, poor fit]"
10,N#CC1=C(N)Oc2cc(N)ccc2C1c1ccc(F)cc1 (stereo not given),"inconclusive: 29.1 µM [inhibitor, partial curve, poor fit]"
11,Cc1ccc(S(=O)(=O)N2CCc3cc(C(=O)Nc4c(C)cccc4C(C)C)ccc32)cc1,"inconclusive: 35.5 µM [inhibitor, single point]"
12,Cc1cc(=O)oc2cc(OCC3CC(c4ccc(Cl)cc4)=NO3)ccc12 (stereo not given),inactive
13,Cc1ccsc1C(=O)C1CCCN(Cc2ccccc2O)C1 (stereo not given),inactive
14,Cc1ccc(Oc2ncc(CN3CC(C)OC(C)C3)s2)cc1 (stereo not given),"inconclusive: 0.13 µM [inhibitor, full curve, poor fit]"
15,O=C(Nc1ccc(Cl)cc1)Nc1nnc(CSc2ccc(Cl)cc2)s1,"inconclusive: 35.5 µM [inhibitor, single point]"
16,O=C(Nc1ccccc1C(F)(F)F)c1cc2ncc(CCCl)cn2n1,inactive
17,COc1cccc(C(=O)NNC(=O)c2cccnc2)c1,inactive
18,Cc1ccccc1NC(=O)CCn1nc(-c2ccc(Cl)cc2)c2ccccc2c1=O,inactive
19,C[C@]12CC[C@H](O)CC1=CCC1C2CC[C@]2(C)C(=O)CC[C@@H]12 (stereo not given in full),"inconclusive: 0.0891 µM [inhibitor, full curve]"
20,CS(=O)(=O)N(CC(=O)N1CCCCC1)C1CCCCC1,"inconclusive: 2.24 µM [activator, single point]"
21,S=C(NCCSCc1c(Cl)cccc1Cl)Nc1ccccc1,"inconclusive: 20.6 µM [inhibitor, partial curve]"
22,O=C(O)CN1C(=O)/C(=C/c2ccsc2)SC1=S,"inconclusive: 35.5 µM [activator, single point]"

# A portion from the list above, as a working copy:
row,Structure (SMILES),Potency
12,Cc1cc(=O)oc2cc(OCC3CC(c4ccc(Cl)cc4)=NO3)ccc12 (stereo not given),inactive
13,Cc1ccsc1C(=O)C1CCCN(Cc2ccccc2O)C1 (stereo not given),inactive
14,Cc1ccc(Oc2ncc(CN3CC(C)OC(C)C3)s2)cc1 (stereo not given),"inconclusive: 0.13 µM [inhibitor, full curve, poor fit]"
15,O=C(Nc1ccc(Cl)cc1)Nc1nnc(CSc2ccc(Cl)cc2)s1,"inconclusive: 35.5 µM [inhibitor, single point]"
16,O=C(Nc1ccccc1C(F)(F)F)c1cc2ncc(CCCl)cn2n1,inactive
